Measurements taken from publication PMC7819943, “Rice protein-binding microarrays: a tool to detect cis-acting elements near promoter regions in rice”.
The other results are listed elsewhere or left out.

By UniProt entry, the sequences of proteins in these tests, tags left out.
UniProt Q0JBA9, entry or part of it: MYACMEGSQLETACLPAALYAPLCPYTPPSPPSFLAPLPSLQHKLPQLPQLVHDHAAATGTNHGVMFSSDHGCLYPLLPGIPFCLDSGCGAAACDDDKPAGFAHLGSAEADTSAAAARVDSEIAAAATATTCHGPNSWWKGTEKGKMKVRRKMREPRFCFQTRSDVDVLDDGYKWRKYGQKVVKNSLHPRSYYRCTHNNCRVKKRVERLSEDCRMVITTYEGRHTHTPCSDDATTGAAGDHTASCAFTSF

target: OsWRKY34 (Oryza sativa, UniProt Q0JBA9 1-250); test: protein-binding microarray (RPBM); PBS, 2% BSA, 51.3 ng/ul salmon testes DNA, 50 uM zinc acetate, 200 nM TF, 25 C, 1 h; high values mean tight binding; settings: protein: recombinant; tags: N-terminal polyhistidine and DsRed monomer fusion (pET32a); label: CyDye5-dUTP incorporated in the synthesized complementary strand; 3' TTTTT single-stranded linker to array surface; dsDNA, one strand shown
Method in brief: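 Using Ni–NTA, transcription factors fused N-terminally to polyhistidine and DsRed were purified after expression in E. coli BL21-CodonPlus. These were incubated at 200 nM with a blocked, double-stranded custom Agilent array for 1 h at 25 °C in a buffer containing 50 µM zinc acetate, and the array was washed. The binding signal is per-feature fluorescence intensity (arbitrary units) on an Axon 4000B scanner.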

Sequence | binding signal
GCCCTCTCTCTCTCTCTCTCTCTCTCTCTCTCTCTCTCTCCGGAGTCACCTAGTGCAG | 11900 fluorescence intensity (a.u.)
GGTTTTATTTTCCACATTTAATGCCCCATGCATGTGTGTCCGGAGTCACCTAGTGCAG | 8560 fluorescence intensity (a.u.)
GGCGGATTCATCCCCGGACAGGAGTAGGGTATTACTTCTTCGGAGTCACCTAGTGCAG | 8020 fluorescence intensity (a.u.)
TCCTCACATGAGAAAGCCAGATATTACCAAGGCCAAGCACCGGAGTCACCTAGTGCAG | 8120 fluorescence intensity (a.u.)
CTGGCCGCCATCTCCGCCAATCTCGCTGAATCGGACGCCACGGAGTCACCTAGTGCAG | 8460 fluorescence intensity (a.u.)
CTTGTGTCCGCGTCGCTCCGCCTCCGCGAGCCGAAGCAGGCGGAGTCACCTAGTGCAG | 8810 fluorescence intensity (a.u.)
TTATAAGATGTTTTGACTTTGGTCAAAGTCAAACTATTTCCGGAGTCACCTAGTGCAG | 16600 fluorescence intensity (a.u.)
AAACCAACCACAGCTCACATTCCTTCATGCATCCATTGTACGGAGTCACCTAGTGCAG | 8300 fluorescence intensity (a.u.)
AAGAGGGTGGGTTGTTGGGGAGAGGGGAGGGAGGAGGATTCGGAGTCACCTAGTGCAG | 20100 fluorescence intensity (a.u.)
ATTAATATCTCTCGTACTCTTGCTCCTCTTCTTCTTCTTCCGGAGTCACCTAGTGCAG | 10500 fluorescence intensity (a.u.)
ACGTATATATTTTTTTTCTTCTCCTCTTCTTTCCAAAGCTCGGAGTCACCTAGTGCAG | 9740 fluorescence intensity (a.u.)
CTCTTTGTTTTTTTGTCAATTGGGCATGGAATTCTTTTTACGGAGTCACCTAGTGCAG | 14400 fluorescence intensity (a.u.)
CAGAATTGGACGGGAGGGGAACAGTAAGAAACATCAATTACGGAGTCACCTAGTGCAG | 8090 fluorescence intensity (a.u.)
TTTTCGGTTCCCAAGCCGCTCGTGAACTTCTCTCGACTCACGGAGTCACCTAGTGCAG | 9360 fluorescence intensity (a.u.)
TGTGTGTTCTCCTTTCCTTTAACCTCTCACCATCTTAACTCGGAGTCACCTAGTGCAG | 9950 fluorescence intensity (a.u.)
ATTTTGATTTTGGTTAGTTTCCGTATATTTTTTCCTCTCACGGAGTCACCTAGTGCAG | 12100 fluorescence intensity (a.u.)
GCTGGATCGCAACGCAAGGGCCCGCGTCCTCTTCCCTTTCCGGAGTCACCTAGTGCAG | 8940 fluorescence intensity (a.u.)
CTCCGCATCCCTCTCGCTCCTACCTTACCCCTCGCCGCCACGGAGTCACCTAGTGCAG | 10200 fluorescence intensity (a.u.)
AACACTTCTTTTGCGGGTCGGCTCCTTTCCTGGACTTTGCCGGAGTCACCTAGTGCAG | 15000 fluorescence intensity (a.u.)
GTAGTAAGCACATACTAGGTGTTGTGGACATGCCATTGACCGGAGTCACCTAGTGCAG | 8730 fluorescence intensity (a.u.)
ATATTGGATTGGTTTTCATTGGTTGTATCGTGTGGACCAACGGAGTCACCTAGTGCAG | 14000 fluorescence intensity (a.u.)

Sequence | binding signal
ACCCGTTGTATCTGTGTTTTTTCGGTTGAGGGACGAAAATCGGAGTCACCTAGTGCAG | 8630 fluorescence intensity (a.u.)
ACCGCCTCCAATCCCGTTACCGCTCCGTGCGACATCCAATCGGAGTCACCTAGTGCAG | 10400 fluorescence intensity (a.u.)
CCAATCCCTACAGTGAAGGCACAGAGATTAGCTTCCAACACGGAGTCACCTAGTGCAG | 8940 fluorescence intensity (a.u.)
CCACCCGCATTGGCGTTCAGCTGTATCATCCACCAGCAATCGGAGTCACCTAGTGCAG | 8560 fluorescence intensity (a.u.)
CAAGCCGGGCGGGAGCCGTGGCGGCGGCCGGGCGGGCGGGCGGAGTCACCTAGTGCAG | 8260 fluorescence intensity (a.u.)
TCTCCTTTTCTAGTGTTCGCCCGCCGCCATCCACACGCCGCGGAGTCACCTAGTGCAG | 8820 fluorescence intensity (a.u.)
AATTCTACTCCTGTTCTTTTACTTCTGTACAGAAACCGGTCGGAGTCACCTAGTGCAG | 9010 fluorescence intensity (a.u.)
ACGATTTAGGTTTGTTTCCTATTCCTTTTACTTTTCTTTACGGAGTCACCTAGTGCAG | 8610 fluorescence intensity (a.u.)
TAACTACTTTTCCGGCCCAGCTATTCTTTTCGTGCCCTTTCGGAGTCACCTAGTGCAG | 9030 fluorescence intensity (a.u.)
TTTGATTGCTCCTAAACGTTACTCCCTCGCGCGCCATAAACGGAGTCACCTAGTGCAG | 8420 fluorescence intensity (a.u.)
AACCCGACATCTATTTCTATAGTTTGGATATACACACGGCCGGAGTCACCTAGTGCAG | 8490 fluorescence intensity (a.u.)
TTAGAAATCAATGAAACTACTCTTTTTTTTATCATATTTCCGGAGTCACCTAGTGCAG | 8530 fluorescence intensity (a.u.)
TTCTCAGCGGCCCGAACCTGTATACATCGCCGGCGTCTTGCGGAGTCACCTAGTGCAG | 9250 fluorescence intensity (a.u.)
AACAAGGTTTGGGGCCTTAGGGGTGATTGTTCACCGTTGACGGAGTCACCTAGTGCAG | 9800 fluorescence intensity (a.u.)
CTGACGGTCTCATCCACGCTGCAACCAAAGCACCCTCGCCCGGAGTCACCTAGTGCAG | 10400 fluorescence intensity (a.u.)
TAAATTTTTTTTTTGTGTCCTTCACACATTTTTTATATATCGGAGTCACCTAGTGCAG | 8230 fluorescence intensity (a.u.)
GCTCCGCCGCCGCACTCCGCTCCGCCGCCACGCTCCGCCACGGAGTCACCTAGTGCAG | 13400 fluorescence intensity (a.u.)
AAGGGGTGGGCGGCAGGGATGCGGTGGGCGATGAGGGAGACGGAGTCACCTAGTGCAG | 10600 fluorescence intensity (a.u.)
TTCTGTAACTTGACCGCCCCTTGCATATATATGCAGCCAGCGGAGTCACCTAGTGCAG | 8220 fluorescence intensity (a.u.)
CGCGGGTTTGCGTGCCAACGTTTGACTGTTCGTCTTATATCGGAGTCACCTAGTGCAG | 8500 fluorescence intensity (a.u.)
CGCGCGCGCAAGCAACCTTACCTTCCCATGCTGCTGTGATCGGAGTCACCTAGTGCAG | 8320 fluorescence intensity (a.u.)

A different layout for some results above.

| Sequence | binding signal |
| --- | --- |
| TTCTCAGCGGCCCGAACCTGTATACATCGCCGGCGTCTTGCGGAGTCACCTAGTGCAG | 9250 fluorescence intensity (a.u.) |
| AACAAGGTTTGGGGCCTTAGGGGTGATTGTTCACCGTTGACGGAGTCACCTAGTGCAG | 9800 fluorescence intensity (a.u.) |

Reprinted from above (2 entries):
Sequence | binding signal
CTCCGCATCCCTCTCGCTCCTACCTTACCCCTCGCCGCCACGGAGTCACCTAGTGCAG | 10200 fluorescence intensity (a.u.)
AACACTTCTTTTGCGGGTCGGCTCCTTTCCTGGACTTTGCCGGAGTCACCTAGTGCAG | 15000 fluorescence intensity (a.u.)
